Data published in US8101783B1, “Titanium-maltol compound and method of synthesizing the same” (priority 2007, dated 2012).
At least one structure is not confirmed: it was looked up by name or label, or the drawing left a doubt.

Assay: Species in D2O solution followed by 1H NMR (monomer/tetramer conversion)
Assay type: physicochemical
Details: crystals in D2O, after 3 hours; partial dissociation of the tetramer

## Cc1occc(=O)c1[O-].Cc1occc(=O)c1[O-].Cc1occc(=O)c1[O-].Cc1occc(=O)c1[O-].Cc1occc(=O)c1[O-].Cc1occc(=O)c1[O-].Cc1occc(=O)c1[O-].Cc1occc(=O)c1[O-].[O-2].[O-2].[O-2].[O-2].[Ti+4].[Ti+4].[Ti+4].[Ti+4] [[Ti4(maltolato)8(μ-O)4]]
  ratio of the tetramer to cis-monomer (tetramer:monomer) by 1H NMR: 7:1
